Experimental data as given in article PMC10987163.
These are yes or no findings as the source states them, for the method shown. In cells and extracts the contact can be indirect. Some entries that bind do so weakly or less than the wild type.

Protein sequences, listed by entry. Tags and fused reporters are not part of them.
UniProt P48754: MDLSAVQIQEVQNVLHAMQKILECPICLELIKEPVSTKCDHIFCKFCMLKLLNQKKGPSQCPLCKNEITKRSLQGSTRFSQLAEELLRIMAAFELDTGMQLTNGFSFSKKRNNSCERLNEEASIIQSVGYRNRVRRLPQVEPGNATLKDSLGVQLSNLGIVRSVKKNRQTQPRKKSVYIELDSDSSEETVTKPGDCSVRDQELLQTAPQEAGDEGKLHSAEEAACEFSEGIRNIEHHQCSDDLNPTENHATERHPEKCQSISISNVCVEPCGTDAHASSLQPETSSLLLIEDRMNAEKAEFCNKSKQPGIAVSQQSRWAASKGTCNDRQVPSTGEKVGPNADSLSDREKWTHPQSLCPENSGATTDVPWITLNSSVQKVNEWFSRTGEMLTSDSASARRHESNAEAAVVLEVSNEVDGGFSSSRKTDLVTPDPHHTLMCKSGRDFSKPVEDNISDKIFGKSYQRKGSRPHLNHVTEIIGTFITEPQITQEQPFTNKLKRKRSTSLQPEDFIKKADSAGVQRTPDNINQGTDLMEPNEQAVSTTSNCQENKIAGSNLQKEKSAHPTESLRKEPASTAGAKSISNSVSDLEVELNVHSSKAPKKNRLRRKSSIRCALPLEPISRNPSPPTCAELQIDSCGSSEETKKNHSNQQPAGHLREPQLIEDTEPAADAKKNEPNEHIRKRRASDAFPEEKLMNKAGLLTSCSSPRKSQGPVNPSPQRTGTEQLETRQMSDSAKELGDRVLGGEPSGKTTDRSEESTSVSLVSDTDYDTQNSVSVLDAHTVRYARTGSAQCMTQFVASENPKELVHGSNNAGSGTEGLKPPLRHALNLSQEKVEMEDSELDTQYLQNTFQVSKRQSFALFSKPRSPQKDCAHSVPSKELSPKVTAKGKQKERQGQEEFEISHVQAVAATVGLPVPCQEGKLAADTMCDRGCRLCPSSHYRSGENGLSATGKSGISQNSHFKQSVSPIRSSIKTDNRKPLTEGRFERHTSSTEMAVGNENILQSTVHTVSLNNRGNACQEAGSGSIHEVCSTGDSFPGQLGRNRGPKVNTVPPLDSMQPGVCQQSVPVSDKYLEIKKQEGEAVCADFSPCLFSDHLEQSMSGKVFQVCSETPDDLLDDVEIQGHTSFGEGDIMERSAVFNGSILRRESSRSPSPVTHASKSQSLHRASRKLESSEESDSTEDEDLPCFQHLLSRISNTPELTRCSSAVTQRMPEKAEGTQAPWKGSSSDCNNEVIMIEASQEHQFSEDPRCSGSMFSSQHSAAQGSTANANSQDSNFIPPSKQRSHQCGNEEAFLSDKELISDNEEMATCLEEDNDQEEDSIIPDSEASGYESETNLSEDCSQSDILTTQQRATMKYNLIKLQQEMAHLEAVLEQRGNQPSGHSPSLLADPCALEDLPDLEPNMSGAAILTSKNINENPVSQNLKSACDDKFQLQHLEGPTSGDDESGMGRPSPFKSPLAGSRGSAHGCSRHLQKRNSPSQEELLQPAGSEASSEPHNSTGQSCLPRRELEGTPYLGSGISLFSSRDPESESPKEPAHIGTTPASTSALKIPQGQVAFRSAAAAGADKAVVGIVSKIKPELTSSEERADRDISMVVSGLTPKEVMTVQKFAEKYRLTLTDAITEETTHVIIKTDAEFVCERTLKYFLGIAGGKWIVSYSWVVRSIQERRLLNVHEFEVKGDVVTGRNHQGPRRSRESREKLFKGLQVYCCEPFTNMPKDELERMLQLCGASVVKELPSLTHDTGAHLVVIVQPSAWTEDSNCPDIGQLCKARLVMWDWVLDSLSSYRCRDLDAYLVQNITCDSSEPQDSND

Molecular target: murine γ‐H2ax (mouse (endogenous in placental tissue)) (UniProt P27661)
Test: co-IP; endogenous proteins in placental tissues of BaP‐exposed mice (and AS‐Ahr‐treated mice); limited (or excessive) and identical amount of γ‐H2ax antibody, Western blot, IgG as negative control

binding: binds
Substance: murine Brca1 (from UniProt P48754 1-1812)
